Measurements reported in PubChem BioAssay AID652272 (Drosophila RNAi Screening Center, 2013)
The screen tested about 21,000 reagents; below is a random part of those with a known target gene and a result. In the full data, 503 (2.4%) got an active call. 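Raw plate light values, not normalised; calls rest on replicate z-scores that were not deposited; hits include reporter decreases as well as increases.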 Entries without a mark were called inactive. The record does not give: the amount of reagent, the time to read-out.

- Screen: 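Finding fly genes that regulate Hedgehog signal transduction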 (primary screen)
- Cell system: Drosophila clone 8 (Cl8) cells
- Reagent: long dsRNA against Drosophila genes
- Detection: 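Plate reader light from a firefly reporter under a ptc promoter fragment that responds to Hedgehog, with Renilla light as transfection reference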
- Reading the numbers: firefly Hh reporter signal: higher = more ptc reporter light; Renilla reference signal: higher = more Renilla control light
- Active means: 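Called a hit if the two-replicate mean z-score lies below -2 or above +3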
- Calls: active = hit: reporter lowered or raised; inactive = not a hit

| gene | DRSC id | firefly Hh reporter signal, replicate 1 | firefly Hh reporter signal, replicate 2 | firefly Hh reporter signal, replicate 3 | Renilla reference signal, replicate 1 | Renilla reference signal, replicate 2 |
| --- | --- | --- | --- | --- | --- | --- |
| CG13840 | DRSC14690 | 4.22e5 | 58729 | – | 22491 | 1793 |
| Trf4-2 (Topoisomerase related function 4-2) | DRSC15237 | 6.09e5 | 1.59e5 | – | 31319 | 4523 |
| CG17991 | DRSC15294 | 99138 | 1.09e5 | – | 3712 | 3848 |
| PGAP2 (Post-GPI attachment to proteins 2) | DRSC00632 | 49562 | 42982 | – | 2624 | 2274 |
| CCT3 (Chaperonin containing TCP1 subunit 3) | DRSC16602 | 90361 | 65981 | – | 4861 | 3285 |
| CG1137 | DRSC12529 | 48584 | 72407 | – | 1794 | 2168 |
| AstCC (Allatostatin double C) | DRSC02404 | 1.18e5 | 62825 | – | 3025 | 6108 |
| CG6683 | DRSC10694 | 72374 | 54981 | – | 3829 | 2214 |
| lbl (ladybird late) | DRSC16986 | 6.80e5 | 1.67e5 | – | 35479 | 3418 |
| lolal (lola like) | DRSC06948 | 1.37e5 | 1.02e5 | – | 6352 | 4544 |
| CG9338 | DRSC03213 | 96292 | 82161 | – | 3779 | 3511 |
| CR31292 (pseudo) | DRSC13120 | 40534 | 2.24e5 | – | 4282 | 3665 |
| Gfat2 (Glutamine:fructose-6-phosphate aminotransferase 2) | DRSC14598 | 78624 | 71027 | – | 1412 | 2000 |
| CG43100 (retired record) | DRSC01001 | 5.07e5 | 1.43e5 | – | 22217 | 6096 |
| CG31823 | DRSC01887 | 80480 | 59915 | – | 2385 | 5691 |
| spn-E (spindle E) | DRSC17064 | 79414 | 85792 | – | 1540 | 2483 |
| CG42750 | DRSC02458 | 2.23e5 (active) | 1.55e5 | 51029 | 18898 | 3728 |
| CG42750 | DRSC03019 | 1.55e5 | 60217 | – | 4173 | 3186 |
| CG42750 | DRSC03024 | 96210 | 51682 | – | 2471 | 4626 |
| Ctps (CTP synthase) | DRSC09342 | 3.49e5 | – | – | 7898 | – |
| Ctps (CTP synthase) | DRSC10728 | 79040 | 44998 | – | 2976 | 1792 |
| Ctps (CTP synthase) | DRSC10729 | 84135 | – | – | 4147 | 2400 |
| Grx1 (Glutaredoxin 1) | DRSC10727 | 86468 | – | – | 5381 | 3126 |
| bap (bagpipe) | DRSC16908 | 5.93e5 | 85824 | – | 3856 | 3856 |
| aru (arouser) | DRSC00802 | 1.71e5 | 1.08e5 | – | 3977 | 2523 |
| Ate1 (Arginyltransferase 1) | DRSC05925 | 1.50e5 | 1.11e5 | – | 6818 | 4482 |
| CG3597 | DRSC00617 | 95140 | 72872 | – | 2224 | 1986 |
| CG13024 | DRSC09904 | 1.43e5 | – | – | 1430 | 3650 |
| CG13492 | DRSC04137 | 67397 | 44288 | – | 2148 | 4273 |
| kek1 (kekkon 1) | DRSC03551 | 1.11e5 | 47044 | – | 3104 | 4305 |
| CG4586 | DRSC18373 | 1.05e5 | 1.05e5 | – | 2493 | 2704 |
| beat-IIIc (beaten path IIIc) | DRSC02438 | 1.12e5 | 1.03e5 | – | 2868 | 7124 |
| beat-IIIc (beaten path IIIc) | DRSC02949 | 1.16e5 | 81393 | – | 2797 | 6963 |
| Ndc1 (Nuclear division cycle 1) | DRSC15895 | 1.11e5 | 61421 | – | 4525 | 2256 |
| fs(1)N (female sterile (1) Nasrat) | DRSC18578 | 84626 | 2.92e5 | – | 2502 | 10656 |
| Ugt36D1 (UDP-glycosyltransferase family 36 member D1) | DRSC02600 | 79778 | 72325 | – | 3579 | 3079 |
| Acer (Angiotensin-converting enzyme-related) | DRSC01852 | 98756 | 1.38e5 | – | 4276 | 5090 |
| CG9107 | DRSC03138 | 1.00e5 | 76338 | – | 3747 | 2957 |
| CG34382 | DRSC08999 | 1.02e5 | 1.83e5 | – | 3180 | 7660 |
| CG34382 | DRSC10166 | 43715 | 51337 | 72525 | 4588 | 5252 |
| CG34382 | DRSC10167 | 31904 | 41052 | 49340 | 4369 | 4154 |
